According to publication PMC10307882:
Results are given in words; binding and its absence hold for the method and conditions named. In cells and extracts the contact can be indirect. Some results given as binding are weak or reduced against the parent protein; the word gives no strength.

Amino acid sequences for entries named in this document (tags omitted).
UniProt Q9Z120: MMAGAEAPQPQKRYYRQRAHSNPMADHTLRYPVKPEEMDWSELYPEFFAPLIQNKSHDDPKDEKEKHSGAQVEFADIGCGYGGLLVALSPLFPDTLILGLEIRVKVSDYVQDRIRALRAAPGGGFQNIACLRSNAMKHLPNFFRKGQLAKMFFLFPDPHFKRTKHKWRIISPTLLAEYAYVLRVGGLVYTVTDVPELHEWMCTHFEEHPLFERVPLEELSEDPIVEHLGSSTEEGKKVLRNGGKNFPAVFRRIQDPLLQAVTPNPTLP
UniProt P46938: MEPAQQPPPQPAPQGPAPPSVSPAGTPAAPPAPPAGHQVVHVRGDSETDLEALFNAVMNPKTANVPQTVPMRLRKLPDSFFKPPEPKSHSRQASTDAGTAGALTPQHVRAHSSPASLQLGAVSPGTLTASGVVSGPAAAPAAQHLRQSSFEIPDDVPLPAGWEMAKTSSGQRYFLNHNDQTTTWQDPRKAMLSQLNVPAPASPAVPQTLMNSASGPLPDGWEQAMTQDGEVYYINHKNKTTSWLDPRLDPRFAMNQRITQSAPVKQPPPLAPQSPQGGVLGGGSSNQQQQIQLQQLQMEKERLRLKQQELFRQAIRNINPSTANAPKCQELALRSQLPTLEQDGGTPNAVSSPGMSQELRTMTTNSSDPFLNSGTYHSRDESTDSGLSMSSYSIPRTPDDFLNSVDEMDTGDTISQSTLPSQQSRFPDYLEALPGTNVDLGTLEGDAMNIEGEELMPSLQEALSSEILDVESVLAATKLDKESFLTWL

Tests used:
[1] = biological target: T1, TMEM11 (mouse (endogenous in mouse cardiomyocytes)) (UniProt Q8BK08); assay: co-IP; immunoprecipitation with anti-TMEM11 antibody or anti-METTL1 antibody followed by western blotting; 'in vivo'; source of the lysate not told
T1 sequence: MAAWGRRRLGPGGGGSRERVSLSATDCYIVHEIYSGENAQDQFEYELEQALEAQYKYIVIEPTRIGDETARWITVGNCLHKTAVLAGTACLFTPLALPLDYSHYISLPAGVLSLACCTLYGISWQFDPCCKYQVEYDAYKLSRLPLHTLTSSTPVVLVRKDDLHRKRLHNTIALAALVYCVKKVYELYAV

[2] = biological target: T1, TMEM11 (mouse (endogenous in mouse cardiomyocytes)); assay: co-IP; co-immunoprecipitation in cardiomyocytes
[3] = biological target: METTL1 (mouse (endogenous in mouse cardiomyocytes)) (UniProt Q9Z120); assay: co-IP; immunoprecipitation with anti-TMEM11 antibody or anti-METTL1 antibody followed by western blotting; 'in vivo'; source of the lysate not told

METTL1 (from UniProt Q9Z120 1-268) (enzyme)
binding [1]: binds

YAP (from UniProt P46938 1-488)
binding [2]: no binding

B1: TMEM11 (protein, UniProt Q8BK08 1-190)
chain: T1 sequence
binding [3]: binds
